Among the data in paper PMC3540053 are binding values, retold here.

The target of the experiment is T1, OsCOI2 (Oryza sativa) (UniProt Q84QA7).
T1 sequence: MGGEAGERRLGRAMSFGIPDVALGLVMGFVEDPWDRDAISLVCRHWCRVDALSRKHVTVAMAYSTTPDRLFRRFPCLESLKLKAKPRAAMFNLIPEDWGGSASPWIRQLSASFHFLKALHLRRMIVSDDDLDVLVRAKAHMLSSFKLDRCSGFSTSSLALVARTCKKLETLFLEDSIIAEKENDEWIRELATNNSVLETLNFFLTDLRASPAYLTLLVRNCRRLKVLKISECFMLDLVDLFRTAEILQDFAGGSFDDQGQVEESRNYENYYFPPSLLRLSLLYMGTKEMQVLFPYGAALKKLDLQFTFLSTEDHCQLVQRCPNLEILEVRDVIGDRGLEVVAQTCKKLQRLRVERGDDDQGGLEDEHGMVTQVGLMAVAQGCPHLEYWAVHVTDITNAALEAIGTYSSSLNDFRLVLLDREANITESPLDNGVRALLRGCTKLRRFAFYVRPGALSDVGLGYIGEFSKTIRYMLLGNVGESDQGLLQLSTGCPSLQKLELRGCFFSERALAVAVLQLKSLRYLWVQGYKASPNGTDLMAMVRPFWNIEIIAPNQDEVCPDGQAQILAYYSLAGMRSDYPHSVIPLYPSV
Description: two-hybrid; OsCOIs as baits in pGBKT7, OsJAZs or JAZs as preys in pGADT7, co-transformed into S. cerevisiae AH109; growth on SD without Ade, His, Leu and Trp (QDO) with 100 µM coronatine, 7 days; graded strong (+++), medium (++), weak (+), undetectable (−).

No constants are given. Whether binding was seen depends on the method and setting.

B1: JAZ11 (protein, UniProt Q9M246 1-238)
chain: MAEVNGDFPVPSFADGTGSVSAGLDLLVERSIHEARSTEPDASTQLTIIFGGSCRVFNGVPAQKVQEIIRIAFAGKQTKNVTGINPALNRALSFSTVADLPIARRRSLQRFLEKRRDRSTKPDGSMILPSQLTIIFGGSFSVFDGIPAEKVQEILHIAAAAKATETINLTSINPALKRAISFSNASTVACVSTADVPIARRRSLQRFFEKRRHRFVHTKPYSATTSEADKNETSPIVT
Regarding B1, the binding result was “no binding”.

B2: JAZ10 (protein, UniProt Q93ZM9 1-197)
chain: MSKATIELDFLGLEKKQTNNAPKPKFQKFLDRRRSFRDIQGAISKIDPEIIKSLLASTGNNSDSSAKSRSVPSTPREDQPQIPISPVHASLARSSTELVSGTVPMTIFYNGSVSVFQVSRNKAGEIMKVANEAASKKDESSMETDLSVILPTTLRPKLFGQNLEGDLPIARRKSLQRFLEKRKERLVSTSPYYPTSA
On to B2, for which the binding entry is recorded as “no binding”.

B3: OsJAZ6 (protein, UniProt Q8H395 1-244)
chain: MAASARPVGVGGERATSFAMACSLLSRYVRQNGAAAAELGLGIRGEGEAPRAAPATMSLLPGEAERKKETMELFPQSAGFGQQDAITADSAADAREQEPEKRQLTIFYGGKVLVFNDFPADKAKGLMQLASKGSPVAPQNAAAPAPAAVTDNTKAPMAVPAPVSSLPTAQADAQKPARANASDMPIARKASLHRFLEKRKDRLNAKTPYQASPSDATPVKKEPESQPWLGLGPNAVVKPIERGQ
In the case of B3, the binding entry is “no binding”.

B4: JAZ9 (protein, UniProt Q8W4J8 1-267)
chain: MERDFLGLSDKQYLSNNVKHEVNDDAVEERGLSTKAAREWGKSKVFATSSFMPSSDFQEAKAFPGAYQWGSVSAANVFRRCQFGGAFQNATPLLLGGSVPLPTHPSLVPRVASSGSSPQLTIFYGGTISVFNDISPDKAQAIMLCAGNGLKGETGDSKPVREAERMYGKQIHNTAATSSSSATHTDNFSRCRDTPVAATNAMSMIESFNAAPRNMIPSVPQARKASLARFLEKRKERLMSAMPYKKMLLDLSTGESSGMNYSSTSPT
Consider B4, for which the binding entry is given as “no binding”.

B5: JAZ4 (protein, UniProt Q58G47 1-310)
chain: MERDFLGLGSKLSPITVKEETNEDSAPSRGMMDWSFSSKVGSGPQFLSFGTSQQETRVNTVNDHLLSSAAMDQNQRTYFSSLQEDRVFPGSSQQDQTTITVSMSEPNYINSFINHQHLGGSPIMAPPVSVFPAPTTIRSSSKPLPPQLTIFYAGSVLVYQDIAPEKAQAIMLLAGNGPHAKPVSQPKPQKLVHHSLPTTDPPTMPPSFLPSISYIVSETRSSGSNGVTGLGPTKTKASLASTRNNQTAAFSMAPTVGLPQTRKASLARFLEKRKERVINVSPYYVDNKSSIDCRTLMSECVSCPPAHHLH
Turning to B5, the binding entry is listed as “no binding”.

B6: JAZ8 (protein, UniProt Q8LBM2 1-131)
chain: MKLQQNCDLELRLFPTSYDSDSSDTTSVVESTSSGNPQPNEESQRITIFYNGKMCFSSDVTHLQARSIISIASREMKTKSSSNGSDPPNKSTSFHHNQLPNPKASMKKSLQSFLQKRKIRIQATSPYHSRR
For the molecule B6, the binding entry is “no binding”.

B7: JAZ7 (protein, UniProt O64687 1-148)
chain: MIIIIKNCDKPLLNFKEMEMQTKCDLELRLLTSSYDSDFHSSLDESSSSEISQPKQESQILTIFYNGHMCVSSDLTHLEANAILSLASRDVEEKSLSLRSSDGSDPPTIPNNSTRFHYQKASMKRSLHSFLQKRSLRIQATSPYHRYR
In the case of B7, the binding entry is listed as “no binding”.
